The target of assay [1] is ASK1 (mouse (endogenous in tail fibroblasts)) (UniProt O35099). Put plainly: co-IP; as a1, but young wild-type fibroblasts treated with 1 mM H2O2 for 30 min before extraction.
For assay [2] the target is unchanged. Put plainly: co-IP; anti-ASK1 antibody with protein A agarose on 200 ug pooled fibroblast protein from 3 samples, 4 C overnight, beads washed 4x with PBS, Trx detected by Western blot; young (4-6 mos) wild-type and Ames dwarf fibroblasts, untreated or treated with rotenone (5 or 20 uM, 60 min), 20 mM 3-NPA, antimycin A (50 uM, 120 min) or, in dwarf cells, H2O2 (1 mM, 30 min). (In general: Immunoblotting shows a protein as a band on a membrane.)

By UniProt entry, the sequences of proteins in these tests, tags left out.
UniProt O35099: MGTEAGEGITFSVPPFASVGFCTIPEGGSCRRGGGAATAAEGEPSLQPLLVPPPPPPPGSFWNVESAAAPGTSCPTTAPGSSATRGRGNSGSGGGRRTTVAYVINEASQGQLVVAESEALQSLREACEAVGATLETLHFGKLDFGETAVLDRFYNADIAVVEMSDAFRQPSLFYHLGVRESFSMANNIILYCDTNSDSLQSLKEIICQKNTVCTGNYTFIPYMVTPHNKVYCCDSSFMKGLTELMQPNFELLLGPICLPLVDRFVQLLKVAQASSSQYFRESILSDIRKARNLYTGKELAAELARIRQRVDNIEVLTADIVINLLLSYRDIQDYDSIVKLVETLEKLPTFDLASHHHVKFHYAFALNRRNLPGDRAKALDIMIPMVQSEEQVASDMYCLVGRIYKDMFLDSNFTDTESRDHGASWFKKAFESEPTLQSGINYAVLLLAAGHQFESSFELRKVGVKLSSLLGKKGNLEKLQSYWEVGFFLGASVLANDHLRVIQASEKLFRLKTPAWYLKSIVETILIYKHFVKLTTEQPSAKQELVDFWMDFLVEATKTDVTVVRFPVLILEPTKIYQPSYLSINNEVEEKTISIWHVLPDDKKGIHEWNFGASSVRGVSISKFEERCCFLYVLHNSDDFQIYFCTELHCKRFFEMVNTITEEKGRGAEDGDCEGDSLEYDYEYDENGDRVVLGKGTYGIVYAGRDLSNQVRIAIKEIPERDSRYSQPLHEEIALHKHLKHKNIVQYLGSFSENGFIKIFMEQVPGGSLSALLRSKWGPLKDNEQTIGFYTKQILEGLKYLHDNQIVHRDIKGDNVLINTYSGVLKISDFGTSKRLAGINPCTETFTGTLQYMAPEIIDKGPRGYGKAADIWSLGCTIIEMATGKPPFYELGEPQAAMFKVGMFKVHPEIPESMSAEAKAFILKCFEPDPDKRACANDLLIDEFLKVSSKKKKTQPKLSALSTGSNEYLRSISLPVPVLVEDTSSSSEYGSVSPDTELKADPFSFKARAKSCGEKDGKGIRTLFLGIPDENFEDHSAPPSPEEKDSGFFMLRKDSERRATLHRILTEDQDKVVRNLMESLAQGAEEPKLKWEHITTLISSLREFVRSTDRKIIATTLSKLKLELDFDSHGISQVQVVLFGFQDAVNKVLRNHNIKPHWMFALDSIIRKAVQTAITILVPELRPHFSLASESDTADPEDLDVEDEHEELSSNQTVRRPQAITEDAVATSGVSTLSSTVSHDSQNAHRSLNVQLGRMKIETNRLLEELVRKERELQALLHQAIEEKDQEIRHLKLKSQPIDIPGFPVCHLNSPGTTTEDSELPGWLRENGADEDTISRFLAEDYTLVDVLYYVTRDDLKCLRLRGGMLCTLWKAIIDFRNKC

No constants are given. Whether binding was seen depends on the method and setting. In cells and extracts the contact can be indirect. Some entries that bind do so weakly or less than the wild type.

B1: thioredoxin (protein, UniProt P10639 1-105)
chain: MVKLIESKEAFQEALAAAGDKLVVVDFSATWCGPCKMIKPFFHSLCDKYSNVVFLEVDVDDCQDVAADCEVKCMPTFQFYKKGQKVGEFSGANKEKLEASITEYA
In the case of B1, the figures for the binding result in assay [1] and in assay [2] were “binds weakly” and “binds”, respectively.
